Results as given in patent US20040161399A1, “Use of nonimmunosuppressive [$g(g)-hydroxy-n-methyl-l-leucine4]cyclosporin derivatives for treating hair loss” (priority 2001, published 2004).
Some of these results come from one statement about several compounds together. Starred links: 1 amine or outer side, 2 acyl side, 3 side chain; linkers in the order of their positions; H or OH if unused. Non-standard residues stand in square brackets, D forms with d. Residues, ends and D or L forms follow the SMILES beside them. AlaΨ(CSNH)dAla = C[C@H](N[*:1])C(=S)N[C@H](C)C(=O)[*:2]; MeBmt = C/C=C/C[C@@H](C)[C@@H](O)[C@H](NC)C(=O)O; NMeLeu(4-OH) = CN[C@@H](CC(C)(C)O)C(=O)O; NMeL = CN[C@@H](CC(C)C)C(=O)O; NMeV = CN[C@H](C(=O)O)C(C)C; dHiv = CC(C)[C@@H](O)C(=O)O; dNMeA = CN[C@H](C)C(=O)O; Abu = CC[C@H](N)C(=O)O; Sar = CNCC(=O)O

tested on: splenocytes (responder cells from BALB/c mice, stimulator cells from C57BL/6 mice); test: Mixed Lymphocyte Reaction (MLR) method, 3H-thymidine incorporation; assay type: cell-based; conditions: MLR IC50 relative to cyclosporin A
Procedure: Evaluation of Non-Immunosuppressive Activity In Vitro
Responder cells from BALB/c mice were mixed with an equal number of stimulator cells from C57BL/6 mice pre-treated with mitomycin. […] After 4 days of incubation, ^3H-thymidine was added to the mixtures and incubated for an additional 4 hours. Then, the amount of thymidine incorporated into the cells was measured (liquid scintillation counter), and IC50 (μg/ml) of respective cyclosporins were calculated.

Row | Compound | decrease in immunosuppressive activity, compared to cyclosporin A
1 | C/C=C/C[C@@H](C)[C@@H](O)[C@H]1C(=O)N[C@@H]([C@@H](C)O)C(=O)N(C)CC(=O)N(C)[C@@H](CC(C)(C)O)C(=O)N[C@@H](CC(C)C)C(=O)N(C)[C@@H](CC(C)C)C(=O)N[C@@H](C)C(=O)O[C@H](C(C)C)C(=O)N(C)[C@@H](CC(C)C)C(=O)N[C@@H](CC(C)C)C(=O)N(C)[C@@H](C(C)C)C(=O)N1C [[L-threonine^2][γ-hydroxy-N-methyl-L-leucine^4][L-leucine^5][D-2-hydroxyisovaleric acid^8][L-leucine^10] cyclosporin A] (cyclo([MeBmt]T[Sar][NMeLeu(4-OH)]L[NMeL]A[dHiv][NMeL]L[NMeV])) | more than 100 fold
2 | C/C=C/C[C@@H](C)[C@@H](O)[C@H]1C(=O)N[C@@H](CC)C(=O)N(C)[C@H](C)C(=O)N(C)[C@@H](CC(C)(C)O)C(=O)N[C@@H](C(C)C)C(=O)N(C)[C@@H](CC(C)C)C(=O)N[C@@H](C)C(=O)N[C@H](C)C(=O)N(C)[C@@H](CC(C)C)C(=O)N(C)[C@@H](CC(C)C)C(=O)N(C)[C@@H](C(C)C)C(=O)N1C [[N-methyl-D-alanine^3][γ-hydroxy-N-methyl-L-leucine^4] cyclosporin A] (cyclo([MeBmt][Abu][dNMeA][NMeLeu(4-OH)]V[NMeL]A[dA][NMeL][NMeL][NMeV])) | more than 100 fold
3 | C/C=C/C[C@@H](C)[C@@H](O)[C@H]1C(=O)N[C@@H](CC)C(=O)N(C)CC(=O)N(C)[C@@H](CC(C)(C)O)C(=O)N[C@@H](C(C)C)C(=O)N(C)[C@@H](CC(C)C)C(=O)N[C@@H](C)C(=S)N[C@H](C)C(=O)N(C)[C@@H](CC(C)C)C(=O)N(C)[C@@H](CC(C)C)C(=O)N(C)[C@@H](C(C)C)C(=O)N1C [[γ-hydroxy-N-methyl-L-leucine^4][alaninethiomide^7, ^7ψ^8 CS—NH] cyclosporin A] (cyclo([MeBmt][Abu][Sar][NMeLeu(4-OH)]V[NMeL][AlaΨ(CSNH)dAla][NMeL][NMeL][NMeV])) | more than 100 fold
4 | C/C=C/C[C@@H](C)[C@@H](O)[C@H]1C(=O)N[C@@H](CC)C(=O)N(C)CC(=O)N(C)[C@@H](CC(C)(C)O)C(=O)N[C@@H](C(C)C)C(=O)N(C)[C@@H](CC(C)C)C(=O)N[C@@H](C)C(=O)N[C@H](C)C(=O)N(C)[C@@H](CC(C)(C)O)C(=O)N(C)[C@@H](CC(C)C)C(=O)N(C)[C@@H](C(C)C)C(=O)N1C [[γ-hydroxy-N-methyl-L-leucine^4][γ-hydroxy-N-methyl-L-leucine^9] cyclosporin A] | more than 100 fold
